Measurements as given in publication PMC11922746, “SPO11 dimers are sufficient to catalyse DNA double-strand breaks in vitro” (Nature, 2024).
These are yes or no findings as the source states them, for the method shown. Where a sequence is shown, tags or fusion partners need not be part of it.

T1: MBP-tagged Mus musculus SPO11 (Mus musculus, UniProt Q9WTK8 1-396)
T1 construct: SPO11, Mus musculus; expected molecular mass of MBP–SPO11 87.4 kDa; active-site tyrosines Y137 and Y138; also called MBP–SPO11; mouse SPO11; source: baculovirus-infected Sf9 insect cells, purified (amylose, Superdex 200, cation exchange); for the complex co-expressed with TOP6BL and purified (Ni-NTA, amylose, Superdex 200); not shown: MBP, N-terminal, kept
T1 sequence (looked up): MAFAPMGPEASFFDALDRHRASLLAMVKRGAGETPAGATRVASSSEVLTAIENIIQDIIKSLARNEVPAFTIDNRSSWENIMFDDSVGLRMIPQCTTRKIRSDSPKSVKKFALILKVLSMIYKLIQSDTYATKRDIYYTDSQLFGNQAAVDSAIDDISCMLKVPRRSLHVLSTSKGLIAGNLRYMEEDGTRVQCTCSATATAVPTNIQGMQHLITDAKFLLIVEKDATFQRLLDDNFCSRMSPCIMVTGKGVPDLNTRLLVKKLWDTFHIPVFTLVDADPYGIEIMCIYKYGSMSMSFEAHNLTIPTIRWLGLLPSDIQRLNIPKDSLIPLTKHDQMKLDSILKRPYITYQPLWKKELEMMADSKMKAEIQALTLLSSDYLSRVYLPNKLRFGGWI


Key:
[1] = target: T1, MBP-tagged Mus musculus SPO11; assay: condition: 4 µM loaded; dissociation constant probably higher than 1–5 µM; SEC-MALS; 4 µM MBP–SPO11 following amylose affinity purification; Superdex 200 increase 10/300 GL; 25 mM HEPES-NaOH pH 7.5, 500 mM NaCl, 10% glycerol, 5 mM EDTA, 2 mM DTT; dimer to monomers; both purified
[2] = target: SPO11–TOP6BL complex (MBP–SPO11 with His–Flag-tagged TOP6BL) (Mus musculus) (UniProt Q9WTK8+J3QMY9); assay: SEC-MALS; co-expressed and co-purified MBP–SPO11 and His–Flag TOP6BL complex (Ni-NTA, amylose, Superdex 200); Superdex 200 increase 10/300 GL; 25 mM HEPES-NaOH pH 7.5, 500 mM NaCl, 10% glycerol, 5 mM EDTA, 2 mM DTT; both purified

binding [1] | binding [2] | Binder
no binding | – | MBP-tagged Mus musculus SPO11 (enzyme, UniProt Q9WTK8 1-396) MAFAPMGPEASFFDALDRHRASLLAMVKRGAGETPAGATRVASSSEVLTAIENIIQDIIKSLARNEVPAFTIDNRSSWENIMFDDSVGLRMIPQCTTRKIRSDSPKSVKKFALILKVLSMIYKLIQSDTYATKRDIYYTDSQLFGNQAAVDSAIDDISCMLKVPRRSLHVLSTSKGLIAGNLRYMEEDGTRVQCTCSATATAVPTNIQGMQHLITDAKFLLIVEKDATFQRLLDDNFCSRMSPCIMVTGKGVPDLNTRLLVKKLWDTFHIPVFTLVDADPYGIEIMCIYKYGSMSMSFEAHNLTIPTIRWLGLLPSDIQRLNIPKDSLIPLTKHDQMKLDSILKRPYITYQPLWKKELEMMADSKMKAEIQALTLLSSDYLSRVYLPNKLRFGGWI
– | no binding | SPO11–TOP6BL complex (MBP–SPO11 with His–Flag-tagged TOP6BL) (complex, UniProt Q9WTK8 1-396; J3QMY9 1-579) chain 1: MAFAPMGPEASFFDALDRHRASLLAMVKRGAGETPAGATRVASSSEVLTAIENIIQDIIKSLARNEVPAFTIDNRSSWENIMFDDSVGLRMIPQCTTRKIRSDSPKSVKKFALILKVLSMIYKLIQSDTYATKRDIYYTDSQLFGNQAAVDSAIDDISCMLKVPRRSLHVLSTSKGLIAGNLRYMEEDGTRVQCTCSATATAVPTNIQGMQHLITDAKFLLIVEKDATFQRLLDDNFCSRMSPCIMVTGKGVPDLNTRLLVKKLWDTFHIPVFTLVDADPYGIEIMCIYKYGSMSMSFEAHNLTIPTIRWLGLLPSDIQRLNIPKDSLIPLTKHDQMKLDSILKRPYITYQPLWKKELEMMADSKMKAEIQALTLLSSDYLSRVYLPNKLRFGGWI chain 2: MERTALAVCEILRYLIIHWKCEAGTAKGTLLDGQLVISIEALRSKHLPDSLHCIITIASTRSVYGGLNFKKFLQEIQPALPRLSAKLALASEEGGRSQDASGIAPCQVTFEVDENSQSLMTDCLVIKHFLRKIIIVHHKLKFSFSVAVNGTLSAETFGAENEPTLRLDNGVTLVVGFQRYVSKPKLNWSEAHCSRIHPVLGHPAPLFIPDAKADTGLLGELTLTPAAALCPSPKGFSSQLCRISSVSIFLYGPLGLPLLSSDQDQPSTAVFRDTSYFIDWKKYNLFMVPNLDLNLDTQSVLPDVNYKAESPEGNQSQNMNAQGPALLLFLFVDFQSDVPVQQAKIWGLHTLLTAHLSAILSESRSTVQQSIQSAVDQVWQLYHHDAKTQQRLQASLSVAVNSIMSVLTGSTRSSFRKTCLQALEAADTQEFGVKLHRIFYDITQHQFLKHCSCDTEQHLTPEKNISAQNTKDQHKNIAQEFPEESIGQAENKRPKRGSPNHGREESRVLGSARDRSPPKSATRDRELTEVSLTARGSQTQAAHGRAQAAEAASPAGGLEDLWLQEVSNLSEWLNPGHRS
